Positions count from the first letter of the chain named. No constants are given. Whether binding was seen depends on the method and setting. In cells and extracts the contact can be indirect. Some binding calls cover weakened binding; strength is not graded here. For part of these data: Sequences can lack the tags named with a protein.
Assays:
[1] = target: T1, HOOK3 (endogenous) (human (endogenous in HeLa)) (UniProt Q86VS8); test: co-IP; HeLa extracts in Buffer H (sonicated, 15,000 x g); 2 hr at 4°C with A/G-agarose beads pre-linked with antibody; washed with coIP-washing buffer; Western blot; cells left non-treated, treated with 100 ng/mL nocodazole for 16 hr, or released from a thymidine block
T1 sequence: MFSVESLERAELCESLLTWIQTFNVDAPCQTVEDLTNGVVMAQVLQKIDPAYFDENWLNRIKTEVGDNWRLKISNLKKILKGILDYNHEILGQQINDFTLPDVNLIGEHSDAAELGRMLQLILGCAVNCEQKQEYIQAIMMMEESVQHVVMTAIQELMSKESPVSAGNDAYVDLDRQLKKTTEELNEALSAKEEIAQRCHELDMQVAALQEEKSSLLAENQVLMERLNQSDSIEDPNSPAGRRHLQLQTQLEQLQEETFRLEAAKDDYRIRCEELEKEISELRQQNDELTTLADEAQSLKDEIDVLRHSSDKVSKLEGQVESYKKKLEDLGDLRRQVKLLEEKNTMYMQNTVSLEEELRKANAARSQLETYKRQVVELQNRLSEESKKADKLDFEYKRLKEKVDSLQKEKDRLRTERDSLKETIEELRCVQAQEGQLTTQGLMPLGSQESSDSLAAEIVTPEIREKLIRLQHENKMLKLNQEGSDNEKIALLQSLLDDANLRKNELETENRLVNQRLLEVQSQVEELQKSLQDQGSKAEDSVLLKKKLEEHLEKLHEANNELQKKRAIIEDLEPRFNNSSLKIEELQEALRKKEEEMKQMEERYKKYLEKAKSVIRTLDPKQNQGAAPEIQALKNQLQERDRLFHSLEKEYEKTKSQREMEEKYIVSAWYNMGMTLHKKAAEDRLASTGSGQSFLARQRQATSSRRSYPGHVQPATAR

GFP-HOOK3 2SE (human) = target: T2, GFP-HOOK3 2SE (human) (UniProt Q86VS8); test: as above
T2 sequence: T1 sequence with S238E, S707E

[2] = target: T1, HOOK3 (endogenous) (human (endogenous in HeLa)); test: proximity ligation; Duolink PLA kit on fixed, permeabilized HeLa cells; non-treated or 100 ng/mL nocodazole for 16 hr; pHisH3 staining marks mitotic cells

Measured: binding

B1: AuroraA (endogenous) (enzyme, UniProt O14965 1-403)
chain: MDRSKENCISGPVKATAPVGGPKRVLVTQQFPCQNPLPVNSGQAQRVLCPSNSSQRIPLQAQKLVSSHKPVQNQKQKQLQATSVPHPVSRPLNNTQKSKQPLPSAPENNPEEELASKQKNEESKKRQWALEDFEIGRPLGKGKFGNVYLAREKQSKFILALKVLFKAQLEKAGVEHQLRREVEIQSHLRHPNILRLYGYFHDATRVYLILEYAPLGTVYRELQKLSKFDEQRTATYITELANALSYCHSKRVIHRDIKPENLLLGSAGELKIADFGWSVHAPSSRRTTLCGTLDYLPPEMIEGRMHDEKVDLWSLGVLCYEFLVGKPPFEANTYQETYKRISRVEFTFPDFVTEGARDLISRLLKHNPSQRPMLREVLEHPWITANSSKPSNCQNKESASKQS
binds: [1] | GFP-HOOK3 2SE (human) | [2]

From paper PMC8215223
